The values that follow come from PMC7862700.

Sequences of proteins named here, by UniProt entry; tags and fusion partners are left off. A change or cut given only in a name is not applied to a line headed by its entry.
UniProt Q01892: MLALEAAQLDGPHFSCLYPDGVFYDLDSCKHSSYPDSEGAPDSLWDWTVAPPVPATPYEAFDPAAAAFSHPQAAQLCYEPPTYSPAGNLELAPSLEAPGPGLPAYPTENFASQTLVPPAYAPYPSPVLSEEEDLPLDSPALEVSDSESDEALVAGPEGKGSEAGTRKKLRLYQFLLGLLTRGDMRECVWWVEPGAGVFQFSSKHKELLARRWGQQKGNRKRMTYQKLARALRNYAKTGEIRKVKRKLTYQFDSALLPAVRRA

The entries are a selection whose mix differs from that of the whole data set. At the low end of the ranking, values are background and their order means little.

In this assay the target is SPIB (UniProt Q01892). Nature of the assay: DAPPL (digital affinity profiling via proximity ligation, sequencing). The note with it: 10 mM Tris-HCl pH 7.5, 50 mM NaCl, 1 mM DTT, 4% glycerol, room temperature, 30 min; GST-TFs on glutathione beads, 16-mer random dsDNA library, 0.1% …; high values mean tight binding; double strand, one strand shown; scale: fold enrichment (6-mer frequency, TF over GST control).
CTAACG gave a binding signal of 1.11.
The result for GACATC reads 1.3.
To TGTGTT belongs 0.95; to TGTGGA, 1.1; to AAACCA, 1.16.
With ACTCTT, the binding signal is 1.25.
To CATCTT belongs 1.21; to TATCCG, 2.8; to GCCTAT, 1.21.
The result for CACATT reads 1.12; that for CTTGAC, 1.19.
